The values below come from publication PMC10239507, “Development of allosteric and selective CDK2 inhibitors for contraception with negative cooperativity to cyclin binding” (Nature Communications, 2023).

The assay concerns OVCAR-3 cells. Briefly: Cytotoxicity assay (Pharmaron).

In the case of `CN[C@@H]1C[C@H]2O[C@@](C)([C@@H]1OC)n1c3ccccc3c3c4c(c5c6ccccc6n2c5c31)C(=O)NC4` [staurosporine], the IC50 result is given as “low nanomolar range”.
